{"source": "PubChem BioAssay AID1259308 (NCATS, 2017)", "purpose": "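Genes whose loss raises luciferase production in HEK293 cells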 (primary screen)", "cell system": "human HEK293 embryonic kidney cells stably expressing firefly luciferase (HEK-CMV-Luc2-Hygro)", "reagents": "single siRNA against human genes, 0.8 pmol siRNA per well", "timing": "72 h", "read-out": "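Reporter luminescence and viable-cell signal on separate replicate plates, given as percent of non-targeting control and median/MAD z-scores, plus per-cell luciferase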", "direction": "total luciferase, z-score: higher = more reporter protein produced", "hit rule": "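Active when the median/MAD z-score for overall luciferase is greater than 3; a gene was taken forward for validation with new siRNAs if at least two of its three siRNAs passed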", "meaning of the calls": "active = raised luciferase; inactive = no rise", "note": "The deposit covers about 59,000 reagents; shown is a random part of them. In the full data, about 1,510 (2.6%) are marked active. 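Calls use total luciferase alone and ignore viability, so some active siRNAs may act by altering cell number.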 A number with no mark means an inactive call. Reagents against one gene are numbered here. Further read-outs or replicates are left out here."}
The first 5 entries as a preview:
{"gene symbol":"ZNF771","reagent no.":1,"total luciferase, z-score":0.854}
{"gene symbol":"ZNF771","reagent no.":2,"total luciferase, z-score":-2.81}
{"gene symbol":"ZNF771","reagent no.":3,"total luciferase, z-score":0.95}
{"gene symbol":"XRRA1","reagent no.":1,"total luciferase, z-score":-0.233}
{"gene symbol":"XRRA1","reagent no.":2,"total luciferase, z-score":-0.218}

Main list, repeating the preview:
{"gene symbol":"ZNF771","reagent no.":1,"total luciferase, z-score":0.854}
{"gene symbol":"ZNF771","reagent no.":2,"total luciferase, z-score":-2.81}
{"gene symbol":"ZNF771","reagent no.":3,"total luciferase, z-score":0.95}
{"gene symbol":"XRRA1","reagent no.":1,"total luciferase, z-score":-0.233}
{"gene symbol":"XRRA1","reagent no.":2,"total luciferase, z-score":-0.218}
{"gene symbol":"XRRA1","reagent no.":3,"total luciferase, z-score":0.46}
{"gene symbol":"MMEL1","reagent no.":1,"total luciferase, z-score":0.0192}
{"gene symbol":"MMEL1","reagent no.":2,"total luciferase, z-score":-0.381}
{"gene symbol":"MMEL1","reagent no.":3,"total luciferase, z-score":-0.167}
{"gene symbol":"BTBD10","reagent no.":1,"total luciferase, z-score":-0.319}
{"gene symbol":"BTBD10","reagent no.":2,"total luciferase, z-score":-0.604}
{"gene symbol":"BTBD10","reagent no.":3,"total luciferase, z-score":-0.487}
{"gene symbol":"LY9","reagent no.":1,"total luciferase, z-score":-1.16}
{"gene symbol":"LY9","reagent no.":2,"total luciferase, z-score":-0.293}
{"gene symbol":"LY9","reagent no.":3,"total luciferase, z-score":1.99}
{"gene symbol":"C11orf97","reagent no.":1,"total luciferase, z-score":1.34}
{"gene symbol":"C11orf97","reagent no.":2,"total luciferase, z-score":1.08}
{"gene symbol":"C11orf97","reagent no.":3,"total luciferase, z-score":-0.168}
{"gene symbol":"NAP1L3","reagent no.":1,"total luciferase, z-score":-1.35}
{"gene symbol":"NAP1L3","reagent no.":2,"total luciferase, z-score":-2.33}
{"gene symbol":"NAP1L3","reagent no.":3,"total luciferase, z-score":-0.601}
{"gene symbol":"OR2U1P","reagent no.":1,"total luciferase, z-score":0.616}
{"gene symbol":"OR2U1P","reagent no.":2,"total luciferase, z-score":-0.85}
{"gene symbol":"OR2U1P","reagent no.":3,"total luciferase, z-score":0.483}
{"gene symbol":"MYBL1","reagent no.":1,"total luciferase, z-score":0.521}
{"gene symbol":"MYBL1","reagent no.":2,"total luciferase, z-score":-0.218}
{"gene symbol":"MYBL1","reagent no.":3,"total luciferase, z-score":-1.04}
{"gene symbol":"MYBL1","reagent no.":4,"total luciferase, z-score":-2.24}
{"gene symbol":"MYBL1","reagent no.":5,"total luciferase, z-score":0.105}
{"gene symbol":"MYBL1","reagent no.":6,"total luciferase, z-score":1.31}
{"gene symbol":"ART4","reagent no.":1,"total luciferase, z-score":-0.0755}
{"gene symbol":"ART4","reagent no.":2,"total luciferase, z-score":-0.868}
{"gene symbol":"ART4","reagent no.":3,"total luciferase, z-score":-0.796}
{"gene symbol":"PRKN","reagent no.":1,"total luciferase, z-score":0.116}
{"gene symbol":"PRKN","reagent no.":2,"total luciferase, z-score":"5.69 (active)"}
{"gene symbol":"PRKN","reagent no.":3,"total luciferase, z-score":-0.0908}
{"gene symbol":"BCOR","reagent no.":1,"total luciferase, z-score":1.27}
{"gene symbol":"BCOR","reagent no.":2,"total luciferase, z-score":1.76}
{"gene symbol":"BCOR","reagent no.":3,"total luciferase, z-score":0.226}
{"gene symbol":"RAD1","reagent no.":1,"total luciferase, z-score":0.874}
{"gene symbol":"RAD1","reagent no.":2,"total luciferase, z-score":-0.209}
{"gene symbol":"RAD1","reagent no.":3,"total luciferase, z-score":0.184}
